Results are given in words; binding and its absence hold for the method and conditions named. Binding seen in cells or lysates may run through a third protein. Some results given as binding are weak or reduced against the parent protein; the word gives no strength. For some assays here: Where a sequence is shown, tags or fusion partners need not be part of it. One block for each molecule: values may come before it.
Experiments:
[1] = molecular target: T1, Flag-hPrickle2 (human Prickle-like protein 2 tagged with three flag sequences in the N terminus) (human) (UniProt Q7Z3G6); experiment: co-IP; reverse co-IP: AnkG270-GFP co-precipitated with Flag-hPrickle2 (fig. S2B); details of this IP not told in the methods shown
T1 sequence: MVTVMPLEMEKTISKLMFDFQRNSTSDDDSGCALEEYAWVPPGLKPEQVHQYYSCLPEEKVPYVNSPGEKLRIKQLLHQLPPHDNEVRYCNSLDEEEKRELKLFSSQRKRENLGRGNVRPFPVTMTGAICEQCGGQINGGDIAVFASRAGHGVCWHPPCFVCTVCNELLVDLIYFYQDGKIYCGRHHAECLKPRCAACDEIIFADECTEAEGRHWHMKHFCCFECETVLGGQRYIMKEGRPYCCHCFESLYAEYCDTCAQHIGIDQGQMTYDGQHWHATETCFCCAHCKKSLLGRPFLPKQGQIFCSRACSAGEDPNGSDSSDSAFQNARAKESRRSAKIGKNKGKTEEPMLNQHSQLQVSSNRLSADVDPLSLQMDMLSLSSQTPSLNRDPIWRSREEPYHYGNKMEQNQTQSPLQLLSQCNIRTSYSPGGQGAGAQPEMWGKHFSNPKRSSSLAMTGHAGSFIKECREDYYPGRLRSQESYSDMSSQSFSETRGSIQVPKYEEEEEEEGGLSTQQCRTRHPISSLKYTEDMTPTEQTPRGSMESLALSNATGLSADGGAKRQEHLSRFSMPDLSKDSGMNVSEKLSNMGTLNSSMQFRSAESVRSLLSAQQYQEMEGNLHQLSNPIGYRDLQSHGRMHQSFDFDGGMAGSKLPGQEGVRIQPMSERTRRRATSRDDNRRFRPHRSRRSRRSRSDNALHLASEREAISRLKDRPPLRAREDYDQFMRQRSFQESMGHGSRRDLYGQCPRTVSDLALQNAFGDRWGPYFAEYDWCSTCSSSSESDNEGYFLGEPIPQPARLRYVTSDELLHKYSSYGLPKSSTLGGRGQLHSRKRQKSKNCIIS

By UniProt entry, the sequences of proteins in these tests, tags left out. Where a name states a change or a piece, a line headed by the entry shows the natural chain unless it says otherwise.
UniProt O70511: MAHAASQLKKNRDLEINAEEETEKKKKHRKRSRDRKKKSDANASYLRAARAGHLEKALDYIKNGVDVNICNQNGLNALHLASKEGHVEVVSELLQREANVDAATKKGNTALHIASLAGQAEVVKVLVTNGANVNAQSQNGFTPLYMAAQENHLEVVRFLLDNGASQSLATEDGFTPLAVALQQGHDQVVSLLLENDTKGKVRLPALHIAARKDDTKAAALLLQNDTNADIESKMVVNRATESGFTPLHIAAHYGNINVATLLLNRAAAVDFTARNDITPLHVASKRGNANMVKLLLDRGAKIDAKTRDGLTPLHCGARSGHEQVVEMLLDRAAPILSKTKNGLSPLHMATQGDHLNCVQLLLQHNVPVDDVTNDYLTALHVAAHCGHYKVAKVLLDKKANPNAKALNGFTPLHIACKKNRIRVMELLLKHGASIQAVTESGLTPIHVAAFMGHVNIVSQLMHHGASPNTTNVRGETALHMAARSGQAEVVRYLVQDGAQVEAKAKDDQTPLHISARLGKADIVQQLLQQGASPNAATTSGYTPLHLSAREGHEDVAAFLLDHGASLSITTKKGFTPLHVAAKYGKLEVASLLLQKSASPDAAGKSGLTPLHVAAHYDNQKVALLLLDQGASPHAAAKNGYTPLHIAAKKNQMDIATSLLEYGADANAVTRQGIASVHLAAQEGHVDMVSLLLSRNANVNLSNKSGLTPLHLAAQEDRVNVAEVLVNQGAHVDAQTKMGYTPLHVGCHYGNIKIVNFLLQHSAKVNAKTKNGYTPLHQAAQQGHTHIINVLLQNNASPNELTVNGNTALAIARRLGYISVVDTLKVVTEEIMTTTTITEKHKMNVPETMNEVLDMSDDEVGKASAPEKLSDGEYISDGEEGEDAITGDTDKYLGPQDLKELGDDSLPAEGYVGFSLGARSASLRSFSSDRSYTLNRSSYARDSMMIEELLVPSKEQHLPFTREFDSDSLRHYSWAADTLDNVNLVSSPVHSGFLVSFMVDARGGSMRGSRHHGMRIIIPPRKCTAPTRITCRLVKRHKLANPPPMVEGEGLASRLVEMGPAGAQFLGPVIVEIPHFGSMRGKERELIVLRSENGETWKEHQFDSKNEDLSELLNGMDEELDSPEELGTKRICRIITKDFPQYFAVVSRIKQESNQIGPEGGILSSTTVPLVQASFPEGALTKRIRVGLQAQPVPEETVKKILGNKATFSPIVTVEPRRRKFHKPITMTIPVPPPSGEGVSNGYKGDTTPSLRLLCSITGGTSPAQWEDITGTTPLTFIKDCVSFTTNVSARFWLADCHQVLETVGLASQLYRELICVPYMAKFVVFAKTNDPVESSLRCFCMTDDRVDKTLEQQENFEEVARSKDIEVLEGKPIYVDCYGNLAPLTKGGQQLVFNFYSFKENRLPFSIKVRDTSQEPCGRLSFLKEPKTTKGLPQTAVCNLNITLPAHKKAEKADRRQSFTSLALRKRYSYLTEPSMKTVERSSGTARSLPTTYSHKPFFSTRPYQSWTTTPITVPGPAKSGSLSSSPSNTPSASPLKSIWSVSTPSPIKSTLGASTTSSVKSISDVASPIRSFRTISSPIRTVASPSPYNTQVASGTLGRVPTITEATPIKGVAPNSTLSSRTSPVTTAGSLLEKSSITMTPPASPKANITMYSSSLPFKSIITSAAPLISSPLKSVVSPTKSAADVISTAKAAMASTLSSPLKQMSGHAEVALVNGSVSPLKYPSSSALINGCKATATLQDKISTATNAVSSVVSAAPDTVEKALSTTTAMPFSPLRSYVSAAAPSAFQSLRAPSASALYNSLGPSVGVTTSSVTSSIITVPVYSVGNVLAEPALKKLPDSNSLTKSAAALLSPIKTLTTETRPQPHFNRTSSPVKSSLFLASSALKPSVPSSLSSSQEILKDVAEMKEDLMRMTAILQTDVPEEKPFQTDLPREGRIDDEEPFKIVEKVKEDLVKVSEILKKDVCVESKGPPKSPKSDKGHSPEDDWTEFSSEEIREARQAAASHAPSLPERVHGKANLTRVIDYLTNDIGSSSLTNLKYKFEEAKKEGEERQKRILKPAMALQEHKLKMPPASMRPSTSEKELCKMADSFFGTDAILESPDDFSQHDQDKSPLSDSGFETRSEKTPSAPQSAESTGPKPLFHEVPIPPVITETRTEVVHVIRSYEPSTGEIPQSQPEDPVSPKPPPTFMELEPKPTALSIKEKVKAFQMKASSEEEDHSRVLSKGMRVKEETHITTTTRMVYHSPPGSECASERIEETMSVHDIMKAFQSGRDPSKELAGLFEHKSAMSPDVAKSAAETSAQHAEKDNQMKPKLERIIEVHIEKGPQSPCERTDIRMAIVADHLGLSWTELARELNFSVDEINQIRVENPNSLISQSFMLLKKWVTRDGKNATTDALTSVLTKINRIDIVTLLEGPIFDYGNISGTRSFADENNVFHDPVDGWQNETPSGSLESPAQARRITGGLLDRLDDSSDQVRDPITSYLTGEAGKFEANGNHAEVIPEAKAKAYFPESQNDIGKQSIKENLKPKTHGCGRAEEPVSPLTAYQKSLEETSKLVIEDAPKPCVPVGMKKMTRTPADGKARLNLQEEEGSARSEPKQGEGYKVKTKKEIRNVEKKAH

[2] = molecular target: T2, GST-hPrickle2 (amino acid 585 to 844), second half of the C-terminal half of the protein including the C2 domain (human) (UniProt Q7Z3G6); experiment: pull-down; GST-Prickle2 fusion proteins on glutathione-Sepharose beads incubated overnight with lysate of HEK293T cells expressing AnkG270-GFP (tris-HCl pH 7.5, 5 mM EDTA, 150 mM NaCl, 1% Triton X-100, 0.5% SDS); washes with TBS and 0.1% Triton X-100; Western blot; only the target purified
T2 sequence: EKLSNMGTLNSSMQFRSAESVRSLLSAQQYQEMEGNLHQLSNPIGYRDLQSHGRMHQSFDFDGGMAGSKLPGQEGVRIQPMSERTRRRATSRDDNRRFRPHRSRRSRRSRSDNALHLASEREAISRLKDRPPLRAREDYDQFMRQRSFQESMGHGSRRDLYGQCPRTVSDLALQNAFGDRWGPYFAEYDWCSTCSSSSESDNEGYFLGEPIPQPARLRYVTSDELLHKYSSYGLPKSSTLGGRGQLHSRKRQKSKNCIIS

[3] = molecular target: T3, GST-hPrickle2 (amino acid 127 to 323), contains the LIM domains (human) (UniProt Q7Z3G6); experiment: as above
T3 sequence: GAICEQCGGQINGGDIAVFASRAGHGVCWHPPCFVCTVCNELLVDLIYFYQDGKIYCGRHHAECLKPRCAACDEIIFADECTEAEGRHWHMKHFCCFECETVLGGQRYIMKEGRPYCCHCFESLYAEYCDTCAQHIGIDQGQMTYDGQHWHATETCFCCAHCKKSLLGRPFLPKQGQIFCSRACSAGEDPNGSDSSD

[4] = molecular target: Ankyrin-G, endogenous in P21 rat cortex (rat (endogenous in P21 cortex)) (UniProt O70511); experiment: co-IP; endogenous IP from P21 rat cortex lysate (50 mM tris pH 7.5, 150 mM NaCl, 2 mM EDTA, 1% Triton X-100) with guinea pig anti-AnkG (control guinea pig IgG), protein A/G agarose, 4°C; Western blot
[5] = molecular target: AnkG270-GFP (270-kDa isoform of Ankyrin-G tagged with GFP) (UniProt O70511); experiment: co-IP; HEK293T cells co-transfected with AnkG-GFP constructs and Flag-hPrickle2; lysis in 50 mM tris-HCl pH 7.5, 150 mM NaCl, 2 mM EDTA, 1% Triton X-100; IP with rabbit anti-GFP (control rabbit IgG), protein A agarose, 4°C; Western blot

binding [1]: binds
binding [2]: binds
binding [3]: binds
Molecule: AnkG270-GFP (270-kDa isoform of Ankyrin-G tagged with GFP) (from UniProt O70511-1 1-2622)

binding [4]: binds
B1: Prickle2, endogenous in P21 rat cortex (protein, UniProt A6IBC5 1-847)
chain: MVTVMPLEMEKTISKLMFDFQRNSTSDDDSGCALEEYAWVPPGLKPEQVHQYYSCLPEEKVPYVNSPGEKLRIKQLLHQLPPHDNEVRYCNSLDEEEKRELKLFSNQRKRENLGRGNVRPFPVTMTGAICEQCGGQIKGGDIAVFASRAGHGICWHPPCFICTVCNELLVDLIYFYQDGKIYCGRHHAECLKPRCAACDEIIFADECTEAEGRHWHMRHFCCFECETVLGGQRYIMKEGRPYCCHCFESLYAEYCDTCAQHIGIDQGQMTYDGQHWHATENCFCCAHCKKSLLGRPFLPKQGQIFCSRACSAGEDPNGSDSSDSAFQNARAKESRRSAKIGKNKGKTEETMLNQHSQLQVSSNRLSADVDPLSVQMDLLSLSSQTPSLNRDPIWRSRDEPFHYGNKMEQNQSQSPLQLLSQCNIRTSYSPGGQAAGAQPDMWAKHFSNPKRSSSMALKGHGGSFIQECREDYYPGRLMSQESYSDMSSQSFSETRGSIPVPKYEEEEEEEEEEGGISTQQCRPRRPLSSLKYTEDMTPTEQTPRGSMESLALSNATGLSAEGGAKRQEHLSRFSMPDLSKDSGMNVSEKLSNMGTLNSSMQFRSAESVRSLLSAQQYQEMEGNLHQLSNPLGYRDLQSHGRMHQSFDFDGGIASSKLPGQEGVHIQPMSERTRRRTTSRDDNRRFRPHRSRRSRRSRSDNALHLASEREVIARLKDRPPLRAREDYDQFVRQRSFQESMGQGSRRDLYSQCPRTVSDLALQNAFGERWGPYFTEYDWCSTCSSSSESDNEGYFLGEPIPQPARLRYVTSDELLHKYSSYGVPKSSTLGGRGQLHSRKRQKSKNCIIS

binding [5]: binds
B2: Flag-hPrickle2 (human Prickle-like protein 2 tagged with three flag sequences in the N terminus) (protein, UniProt Q7Z3G6 1-844)
chain: T1 sequence
